These results are taken from PMC11166608.

Protein sequences, listed by entry. Tags and fused reporters are not part of them. Lines headed by an entry give the natural chain unless they say otherwise; changes in a name come on top.
UniProt A0A3B5YUG0: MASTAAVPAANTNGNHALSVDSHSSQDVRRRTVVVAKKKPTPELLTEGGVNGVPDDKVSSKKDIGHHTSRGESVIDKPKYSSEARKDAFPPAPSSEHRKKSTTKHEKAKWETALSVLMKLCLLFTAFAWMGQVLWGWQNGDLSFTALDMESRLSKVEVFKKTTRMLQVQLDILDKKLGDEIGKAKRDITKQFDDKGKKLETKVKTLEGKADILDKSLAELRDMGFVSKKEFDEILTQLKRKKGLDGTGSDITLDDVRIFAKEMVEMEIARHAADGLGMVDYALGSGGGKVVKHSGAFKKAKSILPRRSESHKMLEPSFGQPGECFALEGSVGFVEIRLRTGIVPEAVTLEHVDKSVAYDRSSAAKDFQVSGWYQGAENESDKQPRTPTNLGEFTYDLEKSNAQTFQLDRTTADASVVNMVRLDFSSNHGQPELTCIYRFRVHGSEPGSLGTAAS
UniProt A0A3B6LNR2: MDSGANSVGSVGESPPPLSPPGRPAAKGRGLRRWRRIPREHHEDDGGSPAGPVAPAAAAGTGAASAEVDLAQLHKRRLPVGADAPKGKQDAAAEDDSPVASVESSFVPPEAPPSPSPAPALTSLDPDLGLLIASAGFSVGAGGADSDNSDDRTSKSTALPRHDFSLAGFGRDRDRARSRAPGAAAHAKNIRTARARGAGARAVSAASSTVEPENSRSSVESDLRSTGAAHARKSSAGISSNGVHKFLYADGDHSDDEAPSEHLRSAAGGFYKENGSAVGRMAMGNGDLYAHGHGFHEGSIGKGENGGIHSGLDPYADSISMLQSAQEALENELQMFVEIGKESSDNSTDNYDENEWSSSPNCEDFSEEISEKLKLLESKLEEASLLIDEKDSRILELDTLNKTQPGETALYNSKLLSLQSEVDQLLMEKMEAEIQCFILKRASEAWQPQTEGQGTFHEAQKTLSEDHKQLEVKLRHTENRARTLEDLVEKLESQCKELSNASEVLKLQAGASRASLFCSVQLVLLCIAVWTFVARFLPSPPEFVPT
UniProt A0A3B6C3B0: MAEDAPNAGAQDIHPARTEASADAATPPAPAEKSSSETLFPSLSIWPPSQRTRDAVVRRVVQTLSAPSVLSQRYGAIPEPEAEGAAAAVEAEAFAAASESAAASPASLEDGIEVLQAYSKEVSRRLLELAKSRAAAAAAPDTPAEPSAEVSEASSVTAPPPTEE
UniProt A0A3B6HRR1: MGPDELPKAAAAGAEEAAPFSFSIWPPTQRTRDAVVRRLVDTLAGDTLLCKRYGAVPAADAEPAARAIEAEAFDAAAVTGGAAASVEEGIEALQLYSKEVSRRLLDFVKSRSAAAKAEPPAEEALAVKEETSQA

Experiment [1] deals with TaWIT1 (split-ubiquitin MYTH bait) (Triticum aestivum). Kind of experiment: two-hybrid; split-ubiquitin-based membrane yeast two-hybrid (MYTH) in NMY51; bait and prey vectors; quadruple dropout/x-α-gal/2.5 mM 3AT.
For experiment [2], the target named is TaSUN2 (nuclear yeast two-hybrid fusion) (Triticum aestivum). Kind of experiment: two-hybrid; nuclear Gal4 yeast two-hybrid; pGBKT7 and pGADT7 fusions co-transferred into Y2H yeast; growth on quadruple dropout medium with x-α-gal.
Experiment [3] addresses TaWPP1 (nuclear yeast two-hybrid fusion) (Triticum aestivum). Described as above.
The target of experiment [4] is TaWPP2 (nuclear yeast two-hybrid fusion) (Triticum aestivum). Described as above.
For experiment [5], the target named is TaRanGAP2 (BiFC fusion, pn/cEYFP-TaRanGAP2) (Triticum aestivum). Kind of experiment: split reporter; BiFC: nEYFP and cEYFP fusions transiently co-expressed in N. benthamiana leaf epidermal cells; YFP by confocal microscopy.
For experiment [6], the target named is TaWIT1 (BiFC fusion, pn/cEYFP-TaWIT1) (Triticum aestivum). Described as above.
Experiment [7] concerns the target TaWPP2 (BiFC fusion, pn/cEYFP-TaWPP2) (Triticum aestivum). Described as above.

No constants are given. Whether binding was seen depends on the method and setting. A result given as binding can be weak or reduced; the word gives no strength. For part of these data: Binding seen in cells or lysates may run through a third protein.

For “TaSUN2 (split-ubiquitin MYTH prey) (from UniProt A0A3B5YUG0)”, in experiment [1], the binding entry is listed as “binds”.

For “TaWIP1 (nuclear yeast two-hybrid fusion) (from UniProt A0A3B6LNR2)”, the binding result in experiment [2], in experiment [3] and in experiment [4] was “binds” in each case.

As to “TaWPP1 (BiFC fusion, pn/cEYFP-TaWPP1) (from UniProt A0A3B6C3B0)”, the binding result in experiment [5], in experiment [6] and in experiment [7] was “binds” in each case.

For “TaWPP2 (BiFC fusion, pn/cEYFP-TaWPP2) (from UniProt A0A3B6HRR1)”, the binding entry in experiment [5] and in experiment [6] was “binds” in each case.
